Literature values in patent US10172912B2, “Chemical induction of lactation in prepubescent non-human mammals” (priority 2009, dated 2019).
Some results were stated once for a whole list of compounds, not compound by compound.

System: non-pregnant mares
Settings: for time to induced lactation after the beginning of treatment: progesterone and estrogen treatment followed by the drug; for time to induction of lactation after commencing administration: twice daily administration in second week

Structure (SMILES) | time to induced lactation after the beginning of treatment | time to induction of lactation after commencing administration
O=c1[nH]c2ccccc2n1CCCN1CCC(n2c(=O)[nH]c3cc(Cl)ccc32)CC1 [Domperidone] | 7 to 12 days | 2 to 5 days
CCN1CCCC1CNC(=O)c1cc(S(N)(=O)=O)ccc1OC (stereo not shown) [sulpiride] | 7 to 12 days | 2 to 5 days
